# Measurements from paper PMC5996148.
# “And” between values parts separate entries of the source, which are not always exact repeats. Identical values can stand only once. The list shows a part of the results.
# What was measured:
# Assay in all cases: protein microarray (ProtoArray v5.0), streptavidin-Alexa Fluor 647
# Details in all cases: 3'-biotin; 20 mM Tris (pH 7.5), 5 mM MgCl2, 100 mM KCl, 0.1% Tween-20, A/T-rich and random oligonucleotide blockers; temperature not stated; high values mean tight binding
# NBPF22P (human) = tested on: NBPF22P (human)
# NCBP1 (human) = tested on: NCBP1 (human)
# NCF4 (human) = tested on: NCF4 (human)
# NCLN (human) = tested on: NCLN (human)
# NCOA4 (human) = tested on: NCOA4 (human)
# NDFIP1 (human) = tested on: NDFIP1 (human)
# NDFIP2 (human) = tested on: NDFIP2 (human)
# NDRG2 (human) = tested on: NDRG2 (human)
# NDRG4 (human) = tested on: NDRG4 (human)
# NDUFA1 (human) = tested on: NDUFA1 (human)
# NDUFA13 (human) = tested on: NDUFA13 (human)
# NDUFA3 (human) = tested on: NDUFA3 (human)
# NDUFA4 (human) = tested on: NDUFA4 (human)
# NDUFA5 (human) = tested on: NDUFA5 (human)
# NDUFB1 (human) = tested on: NDUFB1 (human)
# NDUFB10 (human) = tested on: NDUFB10 (human)
# NDUFB11 (human) = tested on: NDUFB11 (human)
# NDUFB2 (human) = tested on: NDUFB2 (human)
# NDUFS6 (human) = tested on: NDUFS6 (human)
# [1] = tested on: NEDD8-activating enzyme E1 catalytic subunit (human)
sequence,measurement,setting,value
GGGAGGCTGAGGCAGG [G4-1 biotinylated (PQS2)],binding signal,NBPF22P (human),-0.36 z-score
same,binding signal,NCBP1 (human),-0.335 z-score
same,binding signal,NCF4 (human),-0.296 z-score
same,binding signal,NCLN (human),-0.33 z-score
same,binding signal,NCOA4 (human),-0.346 z-score and -0.314 z-score
same,binding signal,NDFIP1 (human),-0.234 z-score
same,binding signal,NDFIP2 (human),-0.31 z-score
same,binding signal,NDRG2 (human),-0.352 z-score
same,binding signal,NDRG4 (human),-0.365 z-score and -0.356 z-score
same,binding signal,NDUFA1 (human),-0.301 z-score
same,binding signal,NDUFA13 (human),-0.293 z-score
same,binding signal,NDUFA3 (human),-0.264 z-score
same,binding signal,NDUFA4 (human),-0.353 z-score
same,binding signal,NDUFA5 (human),-0.369 z-score
same,binding signal,NDUFB1 (human),-0.298 z-score and -0.342 z-score
same,binding signal,NDUFB10 (human),-0.293 z-score
same,binding signal,NDUFB11 (human),-0.312 z-score
same,binding signal,NDUFB2 (human),-0.323 z-score
same,binding signal,NDUFS6 (human),-0.324 z-score
same,binding signal,[1],-0.36 z-score
